Data reported in article PMC6537752, “Molecular characterization of CHAD domains as inorganic polyphosphate-binding modules” (Life Science Alliance, 2019).
No constants are given. Whether binding was seen depends on the method and setting.

Molecular target: SsCHAD (CHAD domain–containing protein from Sulfolobus solfataricus) (Sulfolobus solfataricus) (UniProt Q97YW1)
Assay: SEC; analytical size-exclusion chromatography, Superdex 200 Increase 10/300 GL, buffer A (50 mM PBS, pH 7.5, 500 mM NaCl), 500 μl of protein at 0.5 mg/ml, no polyP; both purified

- binding: no binding (tested: 0.5 mg/ml)
B1: SsCHAD (CHAD domain–containing protein from Sulfolobus solfataricus) (protein, UniProt Q97YW1 1-211)
chain: MTISQVKDYLNLQLKKAIQINGIGVEEIHDMRVAVRKYFDVLYAIHPVYENVECLFLAKEAIKRLGKVRDMDICEIANGERTKLAIRALKDVRELQVCFVNDKIYGVRLTIYNRILSSLHQIQDITDFHELRKNIRVTRNLVEALGYDNTEIKALAKKMGDIRDEILKMRCRGLTPPDINIIQYKEEAKRVILKIIASQEEFHHFKIEDRY
